Binding signal data for 42 sequences are collected here from article PMC7819943, “Rice protein-binding microarrays: a tool to detect cis-acting elements near promoter regions in rice”.

Chains of the proteins cited; added tags and fusions are not shown.
UniProt Q0JBA9, entry or part of it: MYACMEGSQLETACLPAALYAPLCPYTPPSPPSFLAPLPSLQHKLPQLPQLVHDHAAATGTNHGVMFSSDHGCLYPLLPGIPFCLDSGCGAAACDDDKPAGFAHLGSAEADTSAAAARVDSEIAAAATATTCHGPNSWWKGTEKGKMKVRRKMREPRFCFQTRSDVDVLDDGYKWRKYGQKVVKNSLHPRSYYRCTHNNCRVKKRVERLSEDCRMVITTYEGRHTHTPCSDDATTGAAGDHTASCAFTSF

Some of the results follow.

The test concerns the target OsWRKY34 (Oryza sativa, UniProt Q0JBA9 1-250). Put plainly: protein-binding microarray (RPBM); PBS, 2% BSA, 51.3 ng/ul salmon testes DNA, 50 uM zinc acetate, 200 nM TF, 25 C, 1 h; high values mean tight binding. The settings on record: protein: recombinant; tags: N-terminal polyhistidine and DsRed monomer fusion (pET32a); label: CyDye5-dUTP incorporated in the synthesized complementary strand; 3' TTTTT single-stranded linker to array surface; dsDNA, one strand shown. The essentials: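 The binding signal is fluorescence intensity per array feature (arbitrary units). Readings came from an Axon 4000B scanner after a washed, 2% BSA-blocked, double-stranded custom Agilent array had been incubated for 1 h at 25 °C with 200 nM protein and 50 µM zinc acetate. The protein was a Ni–NTA-purified transcription factor fused N-terminally to polyhistidine and DsRed, expressed in E. coli BL21-CodonPlus.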
On to “CCACGTCGCCCTTGTTTATTTCCCACCAAACAAAAAAACCCGGAGTCACCTAGTGCAG”, for which the binding signal is 9030 fluorescence intensity (a.u.).

Consider “TTGTTTTTTCGTTCTTTTTTTTGGCATTGTTTCAGCTTCTCGGAGTCACCTAGTGCAG”, for which the binding signal was 10800 fluorescence intensity (a.u.).

For the sequence “TGCCGACTGCCCACGAGTCAACTTCGTTTGCCGACTCCGACGGAGTCACCTAGTGCAG”, the binding signal is 8500 fluorescence intensity (a.u.).

Take “GTTTCTTGTGTTCATGGCCTCTTCTTGCCGCAGAGAGAGACGGAGTCACCTAGTGCAG”: the binding signal is 8400 fluorescence intensity (a.u.).

With “CCGCCACCACCGCTGCTAAGCCGCCATCGCCGTTGTTTTTCGGAGTCACCTAGTGCAG”, the binding signal was 12400 fluorescence intensity (a.u.).

With “ACTGGAGAAGCTATTAGCTATATATACCGCTGCAATGCTCCGGAGTCACCTAGTGCAG”, the binding signal is 8530 fluorescence intensity (a.u.).

As to “CTTCTTCGATCTCCGGCAATCGCTCCATCGATCGGCGCTTCGGAGTCACCTAGTGCAG”, the binding signal is 8370 fluorescence intensity (a.u.).

“GATATTTGTAACTGTTGTGTGTCTAGTTATCTGCATTTGACGGAGTCACCTAGTGCAG”: the binding signal was 10700 fluorescence intensity (a.u.).

Take “ATCCCCTCACTTCTGGCGCATTCCGCTCCCGCGAAAATCCCGGAGTCACCTAGTGCAG”: the binding signal is 9510 fluorescence intensity (a.u.).

Take “AATCGTATTACTGTATGCTCTCTTGGTTGATTGCACATTCCGGAGTCACCTAGTGCAG”: the binding signal is 13300 fluorescence intensity (a.u.).

For the sequence “GCAGCATGTAGCTACCGTCCAGTATTCTTTGCTTCTTCCACGGAGTCACCTAGTGCAG”, the binding signal is 11800 fluorescence intensity (a.u.).

For “CTCACCGTGCCGACCACCACCTCTCCCAACCTCGCCGTCGCGGAGTCACCTAGTGCAG”, the binding signal is 9250 fluorescence intensity (a.u.).

Turning to “CCACCTGCTCGCCGTCGACGCCGCCCTCGCCATCTTCAATCGGAGTCACCTAGTGCAG”, the binding signal was 12800 fluorescence intensity (a.u.).

Take “CTGCACATTCCAAGTTTCCAACTGATGTTCTTTGTGGTCACGGAGTCACCTAGTGCAG”: the binding signal is 9380 fluorescence intensity (a.u.).

For “ATTCATTATCATCAGGAGTACCGCATACCTATTCTTAGAACGGAGTCACCTAGTGCAG”, the binding signal is 8340 fluorescence intensity (a.u.).

Turning to “GTACTTGGTCACTAACCTTATCTCCTGACAGAAACTCTCTCGGAGTCACCTAGTGCAG”, the binding signal is 8160 fluorescence intensity (a.u.).

Take “CTTTTTTATTACTTATTTTTTGACCGAATTGGTCCAGCTTCGGAGTCACCTAGTGCAG”: the binding signal is 9870 fluorescence intensity (a.u.).

Turning to “GGTTTAGGGGTAAACTACCAATCTAACTTCACTTTTTCAACGGAGTCACCTAGTGCAG”, the binding signal is 8650 fluorescence intensity (a.u.).

As to “ATAGTAGTTATCATGCACCATTTATCATTTGTTTTTTCTTCGGAGTCACCTAGTGCAG”, the binding signal was 12900 fluorescence intensity (a.u.).

Consider “GACGTGTTGGTGTGGAGCTAATCAATCTAGCCAAATACTTCGGAGTCACCTAGTGCAG”, for which the binding signal is 8080 fluorescence intensity (a.u.).

Take “AAAAATAAGTTTTGTTATGATTTAGGCTGTGTTTAGTTCCCGGAGTCACCTAGTGCAG”: the binding signal is 9350 fluorescence intensity (a.u.).

As to “ACAGAGAGAGAGAGAAAATAGCTTTAGAGAGAGAAAAATACGGAGTCACCTAGTGCAG”, the binding signal was 8050 fluorescence intensity (a.u.).

As for “ATCTGATTCCTGCGTTTTTCCTCTGGTCCAATCAAATGGTCGGAGTCACCTAGTGCAG”, the binding signal was 10100 fluorescence intensity (a.u.).

For the sequence “AGGTGAATCGCGGCTGATTGATTTCATGCTTTGTTCCTCTCGGAGTCACCTAGTGCAG”, the binding signal is 12500 fluorescence intensity (a.u.).

Regarding “TACTCCAGTGCTACTTGGCCGCCGCCGCCGCCGCCGCCGGCGGAGTCACCTAGTGCAG”, the binding signal was 9480 fluorescence intensity (a.u.).

For “TGATAAGTTGATGCTAAATCCTGCTATTCTTTGCTCACATCGGAGTCACCTAGTGCAG”, the binding signal was 9300 fluorescence intensity (a.u.).

As for “GCATTGTTTCCCATCGTGCAGTTTATTTGACCCCACTAAACGGAGTCACCTAGTGCAG”, the binding signal was 10100 fluorescence intensity (a.u.).

In the case of “GGATGCCGTCGAGTCGTTGTAGTTTGTGTTTGTCACGTCGCGGAGTCACCTAGTGCAG”, the binding signal was 10200 fluorescence intensity (a.u.).

Take “GCCGCCACCATCTCGCACCTCCGCCGGCCTGCTCGGTCCCCGGAGTCACCTAGTGCAG”: the binding signal is 11600 fluorescence intensity (a.u.).

On to “TCTTCTTTTGTTGTCTTCTGCTATCCAATCTCTTGTCAAACGGAGTCACCTAGTGCAG”, for which the binding signal is 10500 fluorescence intensity (a.u.).

For “CACACGCGTTCCTATACGATTCCTATGTTTTTTTTATATTCGGAGTCACCTAGTGCAG”, the binding signal is 9410 fluorescence intensity (a.u.).

“TTTAATGGCTTCCTCACTAAACTGTCCACATTGAACACTCCGGAGTCACCTAGTGCAG”: the binding signal is 10500 fluorescence intensity (a.u.).

Regarding “GTCCTCGCCCACCACGCCGCCGACCCCAGCGCCGCCATCGCGGAGTCACCTAGTGCAG”, the binding signal was 10100 fluorescence intensity (a.u.).

In the case of “ACACATCACAAGCTAGCTGCTCTCTTTCCTTGCTTGTTTTCGGAGTCACCTAGTGCAG”, the binding signal is 10600 fluorescence intensity (a.u.).

Consider “ATTTTTACCTCCACTCACTCTCTCGCTCTTTCTATCCTCTCGGAGTCACCTAGTGCAG”, for which the binding signal was 11000 fluorescence intensity (a.u.).

For the sequence “GCACGGATCATTCATTCATTCTCTCCTCCTCCGTTCCTGACGGAGTCACCTAGTGCAG”, the binding signal is 9580 fluorescence intensity (a.u.).

In the case of “CTACTTTCACTCCCACCCACCCGACACAGCCGGAGCGCGCCGGAGTCACCTAGTGCAG”, the binding signal was 8630 fluorescence intensity (a.u.).

Turning to “GCCCATCACCGCCCTCACGGACGACACGTCGCCAGACAGCCGGAGTCACCTAGTGCAG”, the binding signal is 9070 fluorescence intensity (a.u.).

On to “AACGCCTCTCGAGTCTTACAGTGAGGTTGACCAAGCCTACCGGAGTCACCTAGTGCAG”, for which the binding signal is 9190 fluorescence intensity (a.u.).

Take “TACTTCCTTTGTCCCTAAATATTTGATGCCGTTGACTTTTCGGAGTCACCTAGTGCAG”: the binding signal was 23900 fluorescence intensity (a.u.).

With “CCATAGTCTCATACTCTCACACTACCATCAACATCTGCCTCGGAGTCACCTAGTGCAG”, the binding signal is 8120 fluorescence intensity (a.u.).

For the sequence “GCGCGAGTACCGAGTTTGACGATGCAGCGGACGGGGCGGGCGGAGTCACCTAGTGCAG”, the binding signal is 8960 fluorescence intensity (a.u.).
